For at least one entry, the source does not settle the construct or the ends of the probe. Where cells or extracts were used, other partners may take part. For part of these data: At least one verdict was read from the data and is not stated in words by the source. Tags and fusion partners may be left off the protein sequences shown.
Legend:
[1] = target: T1, Znf9 (native, cell extract) (Cryptococcus neoformans (H99)) (UniProt J9VQH8); experiment: pull-down, LC-MS/MS; details: H99 lysate, 3 mM MgCl2, heparin, tRNA; protein in an extract; label: 5'-biotin
T1 sequence (looked up, limits assumed): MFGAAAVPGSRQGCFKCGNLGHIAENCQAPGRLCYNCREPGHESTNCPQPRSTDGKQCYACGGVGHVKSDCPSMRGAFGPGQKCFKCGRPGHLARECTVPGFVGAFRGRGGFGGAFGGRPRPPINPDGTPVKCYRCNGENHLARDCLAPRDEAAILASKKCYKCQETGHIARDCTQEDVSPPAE

[2] = target: T2, Gis2 (native, cell extract) (Cryptococcus neoformans (H99)) (UniProt J9VQ17); experiment: UV-cross-linked EMSA; details: znf9Δ extract, band lost in gis2Δ znf9Δ; EMSA: 15 mM HEPES pH 7.4, 40 mM KCl, 5 mM MgCl2, 5% glycerol, 0.5 pmol probe in 20 µl, room temperature 20 min, then UV cross-link on ice 10 min; protein in an extract; label: 5'-TYE705
T2 sequence (looked up, limits assumed): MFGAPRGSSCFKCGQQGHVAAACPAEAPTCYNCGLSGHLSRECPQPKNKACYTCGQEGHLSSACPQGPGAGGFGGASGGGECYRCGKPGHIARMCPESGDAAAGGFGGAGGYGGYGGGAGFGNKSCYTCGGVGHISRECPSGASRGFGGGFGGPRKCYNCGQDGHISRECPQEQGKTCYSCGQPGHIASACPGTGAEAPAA

[3] = target: T1, Znf9 (native, cell extract) (Cryptococcus neoformans (H99)); experiment: UV-cross-linked EMSA; details: gis2Δ extract, band lost in gis2Δ znf9Δ; EMSA: 15 mM HEPES pH 7.4, 40 mM KCl, 5 mM MgCl2, 5% glycerol, 0.5 pmol probe in 20 µl, room temperature 20 min, then UV cross-link on ice 10 min; protein in an extract; label: 5'-TYE705

Row | Sequence | binding result [1] | binding result [2] | binding result [3]
1 | UGCAGUGGAGUUGGAGUGGGGAUGGGAUGUUGGGCAGUGGGCCCGUGGAU [Biotin-RPL2-3'UTR] | binds |  | 
2 | UGCAGUGGAGUUGGAGUGGGGAUGGGAUGUUGGGCAGUGGGCCCGUGGAU [TYE705-RPL2-3'UTR] |  | binds | binds

Source: publication PMC6083090, “CNBP Homologues Gis2 and Znf9 Interact with a Putative G-Quadruplex-Forming 3′ Untranslated Region, Altering Polysome Association and Stress Tolerance in Cryptococcus neoformans”
